Measurements from article PMC5668243.
No constants are given. Whether binding was seen depends on the method and setting. In cells and extracts the contact can be indirect. Some entries that bind do so weakly or less than the wild type.

The chains behind the UniProt entries cited, without tags or fusion partners. Residues count along the entry.
UniProt P11021, residues 19-654: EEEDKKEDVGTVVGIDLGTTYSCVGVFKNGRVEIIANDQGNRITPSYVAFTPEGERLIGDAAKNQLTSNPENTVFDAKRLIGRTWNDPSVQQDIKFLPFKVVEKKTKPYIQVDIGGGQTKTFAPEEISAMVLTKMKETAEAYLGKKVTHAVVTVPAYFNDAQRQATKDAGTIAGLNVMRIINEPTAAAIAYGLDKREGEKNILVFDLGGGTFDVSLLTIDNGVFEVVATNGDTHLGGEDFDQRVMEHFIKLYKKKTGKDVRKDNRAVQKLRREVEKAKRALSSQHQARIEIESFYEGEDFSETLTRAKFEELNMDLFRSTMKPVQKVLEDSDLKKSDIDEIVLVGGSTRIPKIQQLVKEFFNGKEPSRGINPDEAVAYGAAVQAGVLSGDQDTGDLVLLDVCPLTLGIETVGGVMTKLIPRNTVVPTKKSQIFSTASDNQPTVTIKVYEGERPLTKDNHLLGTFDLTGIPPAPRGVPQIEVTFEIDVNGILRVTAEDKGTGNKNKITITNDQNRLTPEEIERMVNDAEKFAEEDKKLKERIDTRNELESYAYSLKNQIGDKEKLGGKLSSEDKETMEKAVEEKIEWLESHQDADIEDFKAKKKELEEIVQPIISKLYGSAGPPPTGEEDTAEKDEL
UniProt P14625, residues 22-803: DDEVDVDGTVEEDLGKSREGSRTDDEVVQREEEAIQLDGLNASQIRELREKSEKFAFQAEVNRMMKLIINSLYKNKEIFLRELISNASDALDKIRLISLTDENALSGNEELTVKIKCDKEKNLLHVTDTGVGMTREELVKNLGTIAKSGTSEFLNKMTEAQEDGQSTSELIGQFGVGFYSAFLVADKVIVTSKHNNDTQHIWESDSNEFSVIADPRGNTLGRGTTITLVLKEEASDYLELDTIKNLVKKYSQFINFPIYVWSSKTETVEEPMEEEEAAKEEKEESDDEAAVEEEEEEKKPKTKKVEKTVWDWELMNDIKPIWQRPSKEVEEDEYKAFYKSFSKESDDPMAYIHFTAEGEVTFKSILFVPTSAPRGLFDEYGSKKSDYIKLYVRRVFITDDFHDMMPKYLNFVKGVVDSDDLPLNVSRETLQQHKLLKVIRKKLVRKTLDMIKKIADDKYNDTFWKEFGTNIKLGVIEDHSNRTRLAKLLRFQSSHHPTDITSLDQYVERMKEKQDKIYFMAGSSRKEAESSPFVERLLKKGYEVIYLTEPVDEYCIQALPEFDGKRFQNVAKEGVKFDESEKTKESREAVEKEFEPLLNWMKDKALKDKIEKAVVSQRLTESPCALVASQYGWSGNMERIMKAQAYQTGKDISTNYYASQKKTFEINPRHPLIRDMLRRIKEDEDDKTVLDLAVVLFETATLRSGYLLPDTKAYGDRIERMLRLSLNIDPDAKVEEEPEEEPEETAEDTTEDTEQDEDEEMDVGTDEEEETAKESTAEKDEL
UniProt P02751, residues 32-2477: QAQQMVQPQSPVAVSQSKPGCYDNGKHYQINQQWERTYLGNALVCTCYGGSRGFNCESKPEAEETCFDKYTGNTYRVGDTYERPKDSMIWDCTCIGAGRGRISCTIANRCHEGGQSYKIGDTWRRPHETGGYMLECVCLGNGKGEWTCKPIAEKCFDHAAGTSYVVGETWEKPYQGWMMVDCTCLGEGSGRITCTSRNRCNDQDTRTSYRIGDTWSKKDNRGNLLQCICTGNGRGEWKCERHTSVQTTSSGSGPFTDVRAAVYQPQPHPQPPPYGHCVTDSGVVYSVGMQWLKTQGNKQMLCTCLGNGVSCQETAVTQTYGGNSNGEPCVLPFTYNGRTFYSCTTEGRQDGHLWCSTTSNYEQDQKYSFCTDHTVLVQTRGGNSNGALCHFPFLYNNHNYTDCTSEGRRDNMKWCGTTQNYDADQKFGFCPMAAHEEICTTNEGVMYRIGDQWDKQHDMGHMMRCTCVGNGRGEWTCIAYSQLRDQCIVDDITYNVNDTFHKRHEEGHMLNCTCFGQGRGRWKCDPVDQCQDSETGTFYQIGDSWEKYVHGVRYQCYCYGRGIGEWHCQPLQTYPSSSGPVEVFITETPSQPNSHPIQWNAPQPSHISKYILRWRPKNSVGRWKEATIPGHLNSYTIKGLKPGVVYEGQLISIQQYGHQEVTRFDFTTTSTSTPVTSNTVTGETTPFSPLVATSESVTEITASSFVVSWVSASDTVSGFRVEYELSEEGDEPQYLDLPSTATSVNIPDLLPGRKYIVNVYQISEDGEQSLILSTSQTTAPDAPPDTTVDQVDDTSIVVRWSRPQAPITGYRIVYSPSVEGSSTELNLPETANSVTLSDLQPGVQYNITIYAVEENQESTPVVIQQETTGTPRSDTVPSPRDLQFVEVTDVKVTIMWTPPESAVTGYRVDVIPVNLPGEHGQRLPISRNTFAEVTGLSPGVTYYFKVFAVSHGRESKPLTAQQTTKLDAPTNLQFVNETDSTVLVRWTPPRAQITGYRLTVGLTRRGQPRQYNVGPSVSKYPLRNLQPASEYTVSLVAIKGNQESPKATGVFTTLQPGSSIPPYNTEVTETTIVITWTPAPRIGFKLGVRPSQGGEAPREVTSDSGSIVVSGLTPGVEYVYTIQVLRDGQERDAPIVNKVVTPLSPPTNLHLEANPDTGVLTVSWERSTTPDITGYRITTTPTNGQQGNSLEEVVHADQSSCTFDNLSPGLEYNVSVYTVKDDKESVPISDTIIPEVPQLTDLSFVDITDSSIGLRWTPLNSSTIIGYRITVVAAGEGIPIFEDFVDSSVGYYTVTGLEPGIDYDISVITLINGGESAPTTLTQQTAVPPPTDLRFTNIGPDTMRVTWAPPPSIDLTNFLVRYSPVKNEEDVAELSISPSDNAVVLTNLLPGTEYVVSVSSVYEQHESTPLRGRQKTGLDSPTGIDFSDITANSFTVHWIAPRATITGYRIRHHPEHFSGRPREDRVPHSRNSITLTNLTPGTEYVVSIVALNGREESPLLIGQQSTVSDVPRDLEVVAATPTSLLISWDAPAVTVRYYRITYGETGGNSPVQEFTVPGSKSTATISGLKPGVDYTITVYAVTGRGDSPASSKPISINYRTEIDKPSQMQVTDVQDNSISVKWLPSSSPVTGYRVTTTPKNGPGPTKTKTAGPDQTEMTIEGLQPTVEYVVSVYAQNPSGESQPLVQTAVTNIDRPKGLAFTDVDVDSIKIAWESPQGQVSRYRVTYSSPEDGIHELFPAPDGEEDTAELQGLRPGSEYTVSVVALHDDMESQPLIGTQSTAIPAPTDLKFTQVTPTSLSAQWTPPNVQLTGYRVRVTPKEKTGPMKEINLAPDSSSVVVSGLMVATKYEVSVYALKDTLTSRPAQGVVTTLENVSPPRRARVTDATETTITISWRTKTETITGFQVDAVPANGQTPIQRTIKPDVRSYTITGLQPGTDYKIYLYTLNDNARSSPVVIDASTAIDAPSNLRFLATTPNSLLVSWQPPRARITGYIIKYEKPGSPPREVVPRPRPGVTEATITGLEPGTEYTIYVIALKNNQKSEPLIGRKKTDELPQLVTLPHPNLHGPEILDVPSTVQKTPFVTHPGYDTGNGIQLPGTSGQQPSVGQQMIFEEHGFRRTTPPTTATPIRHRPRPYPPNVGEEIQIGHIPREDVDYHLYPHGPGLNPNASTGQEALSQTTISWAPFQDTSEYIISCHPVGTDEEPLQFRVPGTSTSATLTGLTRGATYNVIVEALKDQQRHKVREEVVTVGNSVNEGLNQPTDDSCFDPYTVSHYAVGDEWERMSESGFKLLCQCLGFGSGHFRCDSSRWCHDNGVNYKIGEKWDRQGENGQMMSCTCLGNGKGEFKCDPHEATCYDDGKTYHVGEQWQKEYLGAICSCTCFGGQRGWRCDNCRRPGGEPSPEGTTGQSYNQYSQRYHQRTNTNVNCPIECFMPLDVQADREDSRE

How the values were obtained:
[1] = biological target: GRP78 (human (endogenous in GTM3)) (UniProt P11021); assay: co-IP; anti-KDEL antibody (2.5 ug) on Dynabeads protein G; total lysates (100 ug) of GTM3 cells treated with Veh or Dex for 3 days, 10 min at room temperature; washed 3 times with lysis buffer containing 0.5% Triton X-100; blotted for ECM proteins, GRP78 and GRP94; IgG antibody as negative control
[2] = biological target: GRP94 (human (endogenous in GTM3)) (UniProt P14625); assay: as above

binding [1]: binds
binding [2]: binds
Substance: fibronectin (from UniProt P02751 32-2477)
